Experimental data reported in article doi:10.1101/2021.06.28.450115.
These are yes or no findings as the source states them, for the method shown. In cells and extracts the contact can be indirect. Some entries that bind do so weakly or less than the wild type.

Chains of the proteins cited; added tags and fusions are not shown. Residues count along the entry.
UniProt P38646, residues 47-679: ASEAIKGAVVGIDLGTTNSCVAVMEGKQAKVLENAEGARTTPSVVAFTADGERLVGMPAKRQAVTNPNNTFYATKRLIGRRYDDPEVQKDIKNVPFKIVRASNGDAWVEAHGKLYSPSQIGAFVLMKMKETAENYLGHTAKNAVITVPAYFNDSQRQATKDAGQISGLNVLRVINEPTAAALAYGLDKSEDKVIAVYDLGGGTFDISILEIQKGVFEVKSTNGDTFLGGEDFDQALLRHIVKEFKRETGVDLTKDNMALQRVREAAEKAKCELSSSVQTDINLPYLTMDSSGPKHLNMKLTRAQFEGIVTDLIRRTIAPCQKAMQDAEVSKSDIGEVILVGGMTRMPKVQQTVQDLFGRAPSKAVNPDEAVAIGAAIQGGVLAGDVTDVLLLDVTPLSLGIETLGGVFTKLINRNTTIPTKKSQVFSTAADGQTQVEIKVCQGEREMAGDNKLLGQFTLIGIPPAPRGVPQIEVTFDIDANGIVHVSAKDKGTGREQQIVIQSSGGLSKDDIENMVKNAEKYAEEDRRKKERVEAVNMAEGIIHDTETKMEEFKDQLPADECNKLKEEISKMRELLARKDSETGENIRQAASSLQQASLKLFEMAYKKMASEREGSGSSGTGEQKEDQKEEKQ

Molecular target: T1, DAB2IP (endogenous, SW48) (human (endogenous in SW48)) (UniProt Q5VWQ8)
T1 sequence: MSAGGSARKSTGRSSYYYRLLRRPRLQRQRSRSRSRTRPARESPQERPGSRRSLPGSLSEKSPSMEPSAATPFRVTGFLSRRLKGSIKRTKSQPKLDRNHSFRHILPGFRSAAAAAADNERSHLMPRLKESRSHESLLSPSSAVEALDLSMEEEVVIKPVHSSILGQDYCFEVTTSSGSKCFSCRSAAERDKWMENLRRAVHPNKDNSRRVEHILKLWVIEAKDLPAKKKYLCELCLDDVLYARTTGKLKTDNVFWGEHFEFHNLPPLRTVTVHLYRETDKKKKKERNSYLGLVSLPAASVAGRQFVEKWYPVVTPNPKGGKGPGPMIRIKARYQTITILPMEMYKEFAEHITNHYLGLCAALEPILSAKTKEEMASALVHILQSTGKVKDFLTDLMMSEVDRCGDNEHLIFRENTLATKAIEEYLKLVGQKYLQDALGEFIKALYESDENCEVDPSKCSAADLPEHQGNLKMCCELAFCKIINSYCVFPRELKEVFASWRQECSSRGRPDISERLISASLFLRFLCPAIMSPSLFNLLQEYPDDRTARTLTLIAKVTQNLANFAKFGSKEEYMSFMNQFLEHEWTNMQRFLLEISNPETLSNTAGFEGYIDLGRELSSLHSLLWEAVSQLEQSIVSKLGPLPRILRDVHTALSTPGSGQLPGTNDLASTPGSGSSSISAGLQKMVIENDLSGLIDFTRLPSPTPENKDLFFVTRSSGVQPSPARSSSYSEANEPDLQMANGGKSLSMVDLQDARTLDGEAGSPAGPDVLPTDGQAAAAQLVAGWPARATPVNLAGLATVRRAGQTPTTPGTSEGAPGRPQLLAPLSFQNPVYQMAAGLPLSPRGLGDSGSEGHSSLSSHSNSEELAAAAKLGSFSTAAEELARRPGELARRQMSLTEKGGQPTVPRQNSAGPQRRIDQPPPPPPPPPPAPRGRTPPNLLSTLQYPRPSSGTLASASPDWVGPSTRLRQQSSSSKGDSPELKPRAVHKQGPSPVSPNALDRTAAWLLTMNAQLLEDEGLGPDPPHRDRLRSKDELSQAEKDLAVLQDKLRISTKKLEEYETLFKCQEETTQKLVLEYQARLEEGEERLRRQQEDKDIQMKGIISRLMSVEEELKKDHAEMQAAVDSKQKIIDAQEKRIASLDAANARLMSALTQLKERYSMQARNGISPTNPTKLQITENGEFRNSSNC
Experiment: co-IP

| binding | Substance |
| --- | --- |
| no binding | p53 (endogenous, wild type, SW48) (from UniProt P04637 1-393) |
| binds | GRP75 (endogenous, SW48) (from UniProt P38646 47-679) |
